This note sets out measurements from PMC7948952, “Structural basis for multifunctional roles of human Ints3 C-terminal domain” (The Journal of Biological Chemistry, 2020).

Chains of the proteins cited; added tags and fusions are not shown. A line that says so, or that is headed by a name, gives the form on record, which may keep a tag or linker.
Ints3-555-976 K851E (human), one chain, as listed by the source K851E: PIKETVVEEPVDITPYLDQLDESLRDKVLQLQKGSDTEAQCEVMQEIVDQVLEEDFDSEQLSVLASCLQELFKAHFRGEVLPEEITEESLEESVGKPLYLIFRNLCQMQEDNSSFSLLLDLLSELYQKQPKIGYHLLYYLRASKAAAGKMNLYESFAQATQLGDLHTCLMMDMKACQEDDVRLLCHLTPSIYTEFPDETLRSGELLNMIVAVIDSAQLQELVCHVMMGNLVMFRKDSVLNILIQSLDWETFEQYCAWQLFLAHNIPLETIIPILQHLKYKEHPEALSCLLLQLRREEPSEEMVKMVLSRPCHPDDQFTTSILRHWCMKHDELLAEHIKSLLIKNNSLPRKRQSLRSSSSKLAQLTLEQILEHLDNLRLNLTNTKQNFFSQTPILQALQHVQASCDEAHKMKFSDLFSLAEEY
Ints3-555-976 M780A/M781A (human), one chain, as listed by the source M780A M781A: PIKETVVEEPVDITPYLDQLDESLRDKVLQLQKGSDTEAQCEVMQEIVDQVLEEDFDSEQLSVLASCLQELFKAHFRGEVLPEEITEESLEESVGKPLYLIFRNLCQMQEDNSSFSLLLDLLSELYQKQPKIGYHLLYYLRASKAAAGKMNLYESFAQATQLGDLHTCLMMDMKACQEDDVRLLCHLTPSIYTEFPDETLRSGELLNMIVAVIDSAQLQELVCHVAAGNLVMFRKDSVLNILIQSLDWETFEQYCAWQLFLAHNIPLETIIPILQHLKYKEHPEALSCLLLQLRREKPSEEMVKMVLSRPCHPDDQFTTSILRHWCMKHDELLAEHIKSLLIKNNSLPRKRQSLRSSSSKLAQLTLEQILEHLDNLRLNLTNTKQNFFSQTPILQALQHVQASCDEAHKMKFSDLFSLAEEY
Ints3-555-976 R788E/K789E (human), one chain, as listed by the source R788E K789E: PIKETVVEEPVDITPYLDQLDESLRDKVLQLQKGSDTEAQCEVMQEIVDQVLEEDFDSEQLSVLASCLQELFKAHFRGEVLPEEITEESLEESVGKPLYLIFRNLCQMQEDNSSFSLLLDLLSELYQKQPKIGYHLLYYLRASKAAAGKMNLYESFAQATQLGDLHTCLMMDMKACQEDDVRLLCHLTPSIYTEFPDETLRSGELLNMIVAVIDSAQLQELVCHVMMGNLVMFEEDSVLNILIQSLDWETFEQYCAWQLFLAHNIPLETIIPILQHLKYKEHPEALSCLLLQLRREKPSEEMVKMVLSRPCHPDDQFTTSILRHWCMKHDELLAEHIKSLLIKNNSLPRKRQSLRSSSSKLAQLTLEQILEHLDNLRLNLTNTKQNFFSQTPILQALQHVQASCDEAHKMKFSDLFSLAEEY

Holding throughout (test): EMSA
On the technique in general: A gel shift assay detects complexes by their altered migration in electrophoresis.

Data set [1] deals with Ints3-555-976 M780A/M781A (human). The conditions noted are these: significantly reduced vs WT, 20 mM Hepes pH 7.4, 100 mM NaCl, 1 mM MgCl2, 1 mg/ml BSA, 2 mM DTT, 5% glycerol, on ice 30 min, 7.5 nM probe, native 5% PAGE in 1X TBE, recombinant protein, residues 555-976, label: 5' 32P.
Data set [2] relates to Ints3-555-976 K851E (human). The conditions noted are these: significantly reduced vs WT, 20 mM Hepes pH 7.4, 100 mM NaCl, 1 mM MgCl2, 1 mg/ml BSA, 2 mM DTT, 5% glycerol, on ice 30 min, 7.5 nM probe, native 5% PAGE in 1X TBE, recombinant protein, residues 555-976, label: 5' 32P.
For data set [3], the system named is Ints3-555-976 R788E/K789E (human). The settings on record: reduced vs WT, 0-25 uM; 20 mM Hepes pH 7.4, 100 mM NaCl, 1 mM MgCl2, 1 mg/ml BSA, 2 mM DTT, 5% glycerol; on ice 30 min; 7.5 nM probe; native 5% PAGE in 1X TBE; recombinant protein; residues 555-976; label: 5' 32P.
The mark [4] stands for this setting: up to 200 uM, single-stranded DNA.

A weaker result is weaker than the reference pair of the same experiment.

TTTTTTTTTTTTTTTTTTTTTTTTTTTTTT [dT30]: the binding result in data set [1] (setting [4]) and in data set [2] (setting [4]) was “binds more weakly” in each case.

Turning to UUUUUUUUUUUUUUUUUUUUUUUUUUUUUU [rU30], the binding result in data set [1] (0-25 uM), in data set [2] (0-25 uM) and in data set [3] was “binds more weakly” throughout.
